Test results: article PMC9440223
Results are given in words; binding and its absence hold for the method and conditions named. Binding seen in cells or lysates may run through a third protein. A yes stands for co-enrichment or nearness to the bait. Other partners may have been found. Where a sequence is shown, tags or fusion partners need not be part of it.

Biological target: T1, Recombinant Flag-tagged (3xF)-KCTD9 (human) (UniProt Q7L273)
T1 sequence: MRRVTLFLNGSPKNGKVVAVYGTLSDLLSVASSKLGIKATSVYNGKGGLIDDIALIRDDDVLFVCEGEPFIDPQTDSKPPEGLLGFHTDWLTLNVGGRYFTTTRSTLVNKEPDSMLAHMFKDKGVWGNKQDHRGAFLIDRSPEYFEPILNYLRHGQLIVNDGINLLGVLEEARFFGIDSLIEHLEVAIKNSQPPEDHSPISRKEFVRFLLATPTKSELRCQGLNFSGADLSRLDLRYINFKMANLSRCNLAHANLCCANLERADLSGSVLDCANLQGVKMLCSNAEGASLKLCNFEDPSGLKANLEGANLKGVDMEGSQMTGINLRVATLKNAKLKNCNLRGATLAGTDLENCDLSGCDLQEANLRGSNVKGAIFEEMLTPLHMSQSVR
Assay: affinity purification with mass spectrometry; 3xF-KCTD9 immunoprecipitated with Flag antibody from HCT-116 cells, control IgG beside it; Coomassie-stained SDS-PAGE bands identified by mass spectrometry

B1: ZNT9 (Zinc Transporter 9) (protein, UniProt Q6PML9 68-568)
chain: STNVQKEGQGSQTLRVEKVPSFETAEGIGTELKAPLKQEPLQVRVKAVLKKREYGSKYTQNNFITGVRAINEFCLKSSDLEQLRKIRRRSPHEDTESFTVYLRSDVEAKSLEVWGSPEALAREKKLRKEAEIEYRERLFRNQKILREYRDFLGNTKPRSRTASVFFKGPGKVVMVAICINGLNCFFKFLAWIYTGSASMFSEAIHSLSDTCNQGLLALGISKSVQTPDPSHPYGFSNMRYISSLISGVGIFMMGAGLSWYHGVMGLLHPQPIESLLWAYCILAGSLVSEGATLLVAVNELRRNARAKGMSFYKYVMESRDPSTNVILLEDTAAVLGVIIAATCMGLTSITGNPLYDSLGSLGVGTLLGMVSAFLIYTNTEALLGRSIQPEQVQRLTELLENDPSVRAIHDVKATDLGLGKVRFKAEVDFDGRVVTRSYLEKQDFDQMLQEIQEVKTPEELETFMLKHGENIIDTLGAEVDRLEKELKKRNPEVRHVDLEIL
binding: binds
